# From article PMC5996148
# This is one part of the list.
# Experiments:
# Test in all cases: protein microarray (ProtoArray v5.0), streptavidin-Alexa Fluor 647
# Settings in all cases: 3'-biotin; 20 mM Tris (pH 7.5), 5 mM MgCl2, 100 mM KCl, 0.1% Tween-20, A/T-rich and random oligonucleotide blockers; temperature not stated; high values mean tight binding
# [1] = test system: Metallophosphoesterase 1 (human)
# [2] = test system: Metallothionein-1G (human)
# Metaxin-2 (human) = test system: Metaxin-2 (human)
# [3] = test system: Mevalonate kinase (human)
# [4] = test system: Microfibrillar-associated protein 5 (human)
# [5] = test system: Mirror-image polydactyly gene 1 protein (human)
# [6] = test system: Mitochondrial 18 kDa protein (human)
# [7] = test system: Mitochondrial chaperone BCS1 (human)
# [8] = test system: Mitochondrial coiled-coil domain protein 1 (human)
# [9] = test system: Mitogen-activated protein kinase 10 (human)
# [10] = test system: Mitogen-activated protein kinase 14 (human)
# [11] = test system: Mitogen-activated protein kinase kinase kinase 2 (human)
# [12] = test system: Mps one binder kinase activator-like 3 (human)
# [13] = test system: Myelin basic protein (human)
# [14] = test system: Myosin light chain 2, lymphocyte-specific (human)
# [15] = test system: Myosin light chain kinase, smooth muscle (human)
# [16] = test system: Myosin light polypeptide 6 (human)
# [17] = test system: N-acetyltransferase 5 (human)
# [18] = test system: N-terminal EF-hand calcium-binding protein 1 (human)
# [19] = test system: N-terminal EF-hand calcium-binding protein 2 (human)
sequence,measurement,setting,value
GGGAGGCTGAGGCAGG [G4-1 biotinylated (PQS2)],binding signal,[1],-0.308 z-score
same,binding signal,[2],-0.34 z-score
same,binding signal,Metaxin-2 (human),-0.282 z-score
same,binding signal,[3],-0.284 z-score
same,binding signal,[4],-0.312 z-score
same,binding signal,[5],-0.332 z-score
same,binding signal,[6],-0.312 z-score
same,binding signal,[7],-0.343 z-score
same,binding signal,[8],-0.354 z-score
same,binding signal,[9],-0.354 z-score
same,binding signal,[10],-0.286 z-score
same,binding signal,[11],-0.292 z-score
same,binding signal,[12],-0.331 z-score
same,binding signal,[13],-0.351 z-score
same,binding signal,[14],-0.349 z-score
same,binding signal,[15],-0.356 z-score
same,binding signal,[16],-0.257 z-score
same,binding signal,[17],-0.296 z-score
same,binding signal,[18],-0.319 z-score
same,binding signal,[19],-0.324 z-score

# 2 neighbouring entries from above:
sequence,measurement,setting,value
GGGAGGCTGAGGCAGG [G4-1 biotinylated (PQS2)],binding signal,[2],-0.34 z-score
same,binding signal,Metaxin-2 (human),-0.282 z-score
